No constants are given. Whether binding was seen depends on the method and setting. Some entries that bind do so weakly or less than the wild type. Sequences can lack the tags named with a protein.
Columns and labels:
Test in all cases: pull-down
[1] = target: T1, His6-MIT (Vps4 MIT domain) (S. cerevisiae) (UniProt P52917)
T1 sequence: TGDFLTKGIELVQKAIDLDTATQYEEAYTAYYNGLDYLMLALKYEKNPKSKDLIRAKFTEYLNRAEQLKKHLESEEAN

[2] = target: T2, His6-MIT I18D (Vps4 MIT domain, MIM2-binding mutant) (S. cerevisiae) (UniProt P52917)
T2 sequence: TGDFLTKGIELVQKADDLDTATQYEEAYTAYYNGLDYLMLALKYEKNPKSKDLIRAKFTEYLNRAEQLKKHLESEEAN

[3] = target: T3, His6-MIT L64D (Vps4 MIT domain, MIM1-binding mutant) (S. cerevisiae) (UniProt P52917)
T3 sequence: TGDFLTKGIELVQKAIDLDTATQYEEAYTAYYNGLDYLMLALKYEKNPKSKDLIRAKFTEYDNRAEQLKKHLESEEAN

Measured: binding

B1: Bro1 V domain (Bro1V, aa 370-709), GST tag removed (domain or fragment, UniProt P48582 370-709)
chain: DVYEKESIYSEEKATLLRKQVEETETANLEYSSFIEFTNLPRLLSDLEKQFSDGNIFSNTDTQGQLMRDQIQTWCKFIQTNEFRDIEEQMNKIVFKRKQILEILSALPNDQKENVTKLKSSLVAASNSDEKLFACVKPHIVEINLLNDNGKIWKKFDEFNRNTPPQPSLLDIDDTKNDKILELLKQVKGHAEDLRTLKEERSRNLSELRDEINNDDITKLLIINKGKSDVELKDLFEVELEKFEPLSTRIEATIYKQSSMIDDIKAKLDEIFHLSNFKDKSSGEEKFLEDRKNFFDKLQEAVKSFSIFASDLPKGIEFYDSLFNMSRDLAERVRVAKQTE
binds: all assays above
